Our source for the cell viability values is the supplement of paper PMC9744312.

Counter-ions that a name gives are not always drawn. The list shows a part of the results. The data scatter; read single values as rough.

The assay has as its system Peyronie's disease tunica albuginea primary fibroblasts. Briefly: cell viability (DRAQ5 nuclear stain) relative to TGF-beta1-only control; higher = more viable cells. The conditions noted are these: 10 µM; TGF-beta1 10 ng/mL; 72 h.
On to `COc1ccccc1OCC(O)COC(N)=O` (centres undefined) [Methocarbamol], for which the cell viability was 94.5%.
Next, `COC(=O)Nc1nc2cc([S+]([O-])c3ccccc3)ccc2[nH]1` (centres undefined) [Oxfendazole]: 78.9%.
Next, `CCN(CC)CCOCCOC(=O)C(CC)(CC)c1ccccc1` [Oxeladin Citrate]: 87.3%.
Next, `CCCOc1ccc(C(=O)OCCN(CC)CC)cc1N` [Proparacaine HCl]: 83.9%; `CC(C)C[C@H](NC(=O)CNC(=O)c1cc(Cl)ccc1Cl)B1OC(=O)C(CC(=O)O)(CC(=O)O)O1` [Ixazomib Citrate (MLN9708)]: 33.1%.
For `CC[C@@H](CO)NCCN[C@@H](CC)CO` [Ethambutol 2HCl], the cell viability stood at 92.9%.
Regarding `C[C@]1(Cn2ccnn2)[C@H](C(=O)O)N2C(=O)C[C@H]2S1(=O)=O` [Tazobactam], the cell viability worked out at 88.4%.
Next, `C[C@@H]1COC(Nc2ccc3ncnc(Nc4ccc(OCc5nccs5)c(Cl)c4)c3c2)=N1` [Varlitinib]: 69.9%; `CC(=O)OCC(=O)[C@H]1CC[C@H]2[C@@H]3CCC4=CC(=O)CC[C@]4(C)[C@H]3CC[C@]12C` [Deoxycorticosterone acetate]: 83.8%.
The result for `CC1(C)[C@@H](OC(=O)CCC(=O)O)CC[C@]2(C)[C@H]3C(=O)C=C4[C@@H]5C[C@@](C)(C(=O)O)CC[C@]5(C)CC[C@@]4(C)[C@]3(C)CC[C@@H]12` [Carbenoxolone Sodium] reads 88.6%; that for `CC(CN(C)C)CN1c2ccccc2Sc2ccccc21` (centres undefined) [Alimemazine Tartrate], 92.8%; that for `C#C[C@]1(O)CC[C@H]2[C@@H]3CCC4=CC(=O)CC[C@@H]4[C@H]3CC[C@@]21CC` [Levonorgestrel], 109%.
The result for `N=C(N)NCCN1CCCCCCC1` [Guanethidine Sulfate] reads 95.6%; that for `N=C(N)NCCN1CCCCCCC1` [Guanethidine Monosulfate], 97.1%.
In the case of `C=CC(=O)Nc1cccc(Oc2nc(Nc3ccc(N4CCN(C)CC4)cc3)nc3ccsc23)c1`, the cell viability was 64.4%.
Next, `C[C@H](NC(=O)C(=O)Nc1ccccc1C(C)(C)C)C(=O)N[C@@H](CC(=O)O)C(=O)COc1c(F)c(F)cc(F)c1F` [Emricasan]: 94%.
Consider `CC(C(=O)O)c1ccc(C(=O)c2ccccc2)s1` (centres undefined) [Tiaprofenic acid], for which the cell viability turned out to be 105%.
Turning to `O=C1CCCC(=O)C1C(=O)c1ccc(C(F)(F)F)cc1[N+](=O)[O-]` [Nitisinone], the cell viability came out at 98.8%.
For `CC(=O)N(CC(O)CN(C(C)=O)c1c(I)c(C(=O)NCC(O)CO)c(I)c(C(=O)NCC(O)CO)c1I)c1c(I)c(C(=O)NCC(O)CO)c(I)c(C(=O)NCC(O)CO)c1I` (centres undefined) [Iodixanol], the cell viability was 75.6%.
Regarding `CC[C@H](C)C[C@H](C)CCCCCCCCC(=O)N[C@H]1C[C@@H](O)[C@@H](NCCN)NC(=O)[C@@H]2[C@@H](O)CCN2C(=O)[C@H]([C@H](O)CCN)NC(=O)[C@H]([C@H](O)[C@@H](O)c2ccc(O)cc2)NC(=O)[C@@H]2C[C@@H](O)CN2C(=O)[C@H]([C@@H](C)O)NC1=O` [Caspofungin Acetate], the cell viability was found to be 99%.
The result for `CN(C)Cc1ccc(S(=O)(=O)n2ccc(/C=C/C(=O)NO)c2)cc1` [Resminostat] reads 60.8%; that for `CN(C)CC/C=C1/c2ccccc2COc2ccc(CC(=O)O)cc21` [Olopatadine HCl], 91.1%.
The result for `Cc1cc(-c2ccc(/N=N/c3ccc4c(S(=O)(=O)O)cc(S(=O)(=O)O)c(N)c4c3O)c(C)c2)ccc1/N=N/c1ccc2c(S(=O)(=O)O)cc(S(=O)(=O)O)c(N)c2c1O` [Evans Blue] reads 93.5%; that for `CC(O)c1ccc(S(=O)(=O)NC(=O)NC2CCCCC2)cc1` (centres undefined) [Hydroxyhexamide], 99%; that for `CCCCCCCCCCCC[N+](C)(C)CCOc1ccccc1` [Domiphen Bromide], 33.6%.
Regarding `Cc1ccc(-n2nc(C(C)(C)C)cc2NC(=O)Nc2ccc(OCCN3CCOCC3)c3ccccc23)cc1` [Doramapimod (BIRB 796)], the cell viability turned out to be 116%.
The result for `CCC(=O)OCC(=O)[C@@]1(OC(=O)CC)[C@@H](C)C[C@H]2[C@@H]3CCC4=CC(=O)C=C[C@]4(C)[C@@]3(Cl)[C@@H](O)C[C@@]21C` [Beclomethasone dipropionate] reads 83.1%; that for `O=C(/C=C/C=C/c1ccc2c(c1)OCO2)N1CCCCC1` [Piperine], 94.4%; that for `CCN(CC)Cc1cc(Nc2ccnc3cc(Cl)ccc23)ccc1O` [Amodiaquine dihydrochloride dihydrate], 84.2%.
The result for `CCN(CC)Cc1cc(Nc2ccnc3cc(Cl)ccc23)ccc1O` [Amodiaquine hydrochloride] reads 80.9%; that for `O=C1/C(=C2\Nc3ccc(S(=O)(=O)O)cc3C2=O)Nc2ccc(S(=O)(=O)O)cc21` [Indigo carmine], 81.1%; that for `COc1ccccc1N1CCN(CCCNc2cc(=O)n(C)c(=O)n2C)CC1` [Urapidil HCl], 67.8%.
The result for `COc1nc(N)nc2c1ncn2[C@@H]1O[C@H](CO)[C@@H](O)[C@@H]1O` [Nelarabine] reads 99.2%.
For the molecule `O=C1NC(=O)[C@@H](c2cn3c4c(cccc24)CCC3)[C@@H]1c1c[nH]c2ccccc12` [Tivantinib (ARQ 197)], the cell viability was 62.7%.
The result for `CCc1cnn2c(NCc3ccc[n+]([O-])c3)cc(N3CCCC[C@H]3CCO)nc12` reads 55.7%; that for `CC(C)NCC(O)c1cc(O)cc(O)c1` (centres undefined) [Metaproterenol Sulfate], 96.3%; that for `C[n+]1ccccc1/C=N/O` [Pralidoxime chloride], 98.3%.
Next, `Cc1cccc(Nc2ccccc2C(=O)O)c1C` [Mefenamic Acid]: 100%; `CCC(C)n1ncn(-c2ccc(N3CCN(c4ccc(OCC5COC(Cn6cncn6)(c6ccc(Cl)cc6Cl)O5)cc4)CC3)cc2)c1=O` (centres undefined) [Itraconazole]: 96.6%.
For `CCOc1cc(N)c(Cl)cc1C(=O)NCC1CN(Cc2ccc(F)cc2)CCO1` (centres undefined) [Mosapride], the cell viability was 93.6%.
As for `CCOc1cc(N)c(Cl)cc1C(=O)NCC1CN(Cc2ccc(F)cc2)CCO1` (centres undefined) [Mosapride Citrate], the cell viability was 98.9%.
Next, `O=C(O)CCNC(=O)c1ccc(/N=N/c2ccc(O)c(C(=O)O)c2)cc1` [Balsalazide disodium]: 92.5%; `C[C@H]1[C@H](OC(=O)CCC(=O)O)O[C@@H]2O[C@@]3(C)CC[C@H]4[C@H](C)CC[C@@H]1[C@@]24OO3` [Artesunate]: 100%; `Cc1ccsc1C(=CCCN1CCC[C@@H](C(=O)O)C1)c1sccc1C` [Tiagabine hydrochloride]: 88.4%.
On to `Cc1ccsc1C(=CCCN1CCC[C@@H](C(=O)O)C1)c1sccc1C` [Tiagabine], for which the cell viability was 93.9%.
The result for `C[n+]1ccccc1C=NO` [Pralidoxime Iodide] reads 93%.
The result for `O=C1OC(CN2CCOCC2)CN1/N=C/c1ccc([N+](=O)[O-])o1` (centres undefined) [Furaltadone HCl] reads 89.3%; that for `O=C1CCC(N2C(=O)c3ccccc3C2=O)C(=O)N1` (centres undefined) [Thalidomide], 71.8%; that for `c1cn2cc(-c3ccc4cn[nH]c4c3)nc(Nc3ccc(N4CCOCC4)cc3)c2n1` [Entospletinib (GS-9973)], 106%.
Turning to `CC(=O)OCC1=C(C(=O)O)N2C(=O)[C@@H](NC(=O)Cc3cccs3)[C@H]2SC1` [Cephalothin], the cell viability amounted to 93.7%.
The result for `Clc1ccc(C(Cn2ccnc2)OCc2csc3c(Cl)cccc23)c(Cl)c1` (centres undefined) [Sertaconazole nitrate] reads 89.9%; that for `CCOc1ccc(NC(=O)CC(C)O)cc1` (centres undefined) [Bucetin], 84.9%; that for `Cc1nc2n(c(=O)c1CCN1CCC(c3noc4cc(F)ccc34)CC1)CCCC2O` (centres undefined) [Paliperidone], 94.5%.
For `CCCCc1nc(Cl)c(CO)n1Cc1ccc(-c2ccccc2-c2nnn[nH]2)cc1` [Losartan], the cell viability was 87.8%.
The result for `CCCCc1nc(Cl)c(CO)n1Cc1ccc(-c2ccccc2-c2nnn[nH]2)cc1` [Losartan Potassium (DuP 753)] reads 85.4%; that for `CC1(C)S[C@@H]2[C@H](NC(=O)Cc3ccccc3)C(=O)N2[C@H]1C(=O)O` [Benzylpenicillin potassium], 98.8%.
As to `CC1(C)S[C@@H]2[C@H](NC(=O)Cc3ccccc3)C(=O)N2[C@H]1C(=O)O` [Penicillin G Sodium], the cell viability was 94.9%.
Next, `COc1cc(/C=C/C(=O)CC(=O)/C=C/c2ccc(O)c(OC)c2)ccc1O` [Curcumin]: 96.6%.
In the case of `O=C(O)CSCC(=O)NC1CCSC1=O` (centres undefined) [Erdosteine], the cell viability worked out at 91.5%.
The result for `CC1(C)S[C@@H]2[C@H](NC(=O)[C@H](N)c3ccccc3)C(=O)N2[C@H]1C(=O)OCOC(=O)[C@@H]1N2C(=O)C[C@H]2S(=O)(=O)C1(C)C` [Sultamicillin] reads 113%; that for `O=C1c2cccc3c2[C@H](CCC3)CN1[C@@H]1CN2CCC1CC2` [Palonosetron HCl], 90.4%; that for `CC(=O)Oc1ccccc1C(=O)O.CC(=O)Oc1ccccc1C(=O)O.NC(N)=O` [Carbasalate Calcium], 86.5%.
Next, `NCC[C@H](O)C(=O)N[C@@H]1C[C@H](N)[C@@H](O[C@H]2O[C@H](CN)[C@@H](O)[C@H](O)[C@H]2O)[C@H](O)[C@H]1O[C@H]1O[C@H](CO)[C@@H](O)[C@H](N)[C@H]1O` [Amikacin disulfate]: 79.8%; `NCC[C@H](O)C(=O)N[C@@H]1C[C@H](N)[C@@H](O[C@H]2O[C@H](CN)[C@@H](O)[C@H](O)[C@H]2O)[C@H](O)[C@H]1O[C@H]1O[C@H](CO)[C@@H](O)[C@H](N)[C@H]1O` [Amikacin hydrate]: 88.4%.
The result for `Nc1nc(O)c2ncn(CCC(CO)CO)c2n1` [Penciclovir] reads 100%.
On to `Fc1ccc([C@@H]2CCNC[C@H]2COc2ccc3c(c2)OCO3)cc1` [Paroxetine HCl], for which the cell viability amounted to 80.6%.
Next, `Fc1ccc([C@@H]2CCNC[C@H]2COc2ccc3c(c2)OCO3)cc1` [Paroxetine mesylate]: 82.3%.
As for `CN(C/C=C/C#CC(C)(C)C)Cc1cccc2ccccc12` [Terbinafine], the cell viability is 100%.
The result for `CN(C/C=C/C#CC(C)(C)C)Cc1cccc2ccccc12` [Terbinafine HCl] reads 86.6%.
